Laboratory results from PubChem BioAssay AID2517 (National Center for Advancing Translational Sciences (NCATS), 2010).
Screen size: about 350,000 compounds; about 1,200 (0.34%) were called active. The inconclusive results got no clear call from the source; some entries with a clear call stand among them for comparison. The call rests on the fitted dose curve; in most records, active means well fitted inhibition curve with a large enough effect; inconclusive means small, poorly fitted or top-dose-only effect; inactive means no such curve, though single readings can be large or run the other way. Where the call is inconclusive, the potency comes from a doubtful curve fit. The source holds several records for some structures; these can differ, active in one and inactive in another.

Sequences of proteins named here, by UniProt entry; tags and fusion partners are left off.
UniProt P27695, whole entry, looked up: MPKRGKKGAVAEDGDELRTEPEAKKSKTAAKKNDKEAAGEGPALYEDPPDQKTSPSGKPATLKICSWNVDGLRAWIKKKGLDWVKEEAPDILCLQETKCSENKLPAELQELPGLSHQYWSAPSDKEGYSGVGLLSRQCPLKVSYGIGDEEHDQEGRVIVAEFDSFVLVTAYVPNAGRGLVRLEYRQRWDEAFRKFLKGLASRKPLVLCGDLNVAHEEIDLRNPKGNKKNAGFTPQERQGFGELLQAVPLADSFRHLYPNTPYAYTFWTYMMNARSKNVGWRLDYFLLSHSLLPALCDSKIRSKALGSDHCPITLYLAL

These molecules were tested against DNA repair nuclease/redox regulator APEX1 (Homo sapiens) (UniProt P27695) (assay: qHTS Assay for Inhibitors of the Human Apurinic/apyrimidinic Endonuclease 1 (APE1)). Details: recombinant APE1, TAMRA/BHQ-2 abasic DNA cleavage fluorescence; series mostly up to 65.8 µM.
Excerpt: The apurinic/apyrimidinic endonuclease APE1 is the primary mammalian enzyme responsible for the removal of abasic (or AP) sites in DNA and functions centrally in the base excision DNA repair (BER) pathway. […] Thus, targeting APE1 could improve the efficacy of current treatment paradigms by promoting selective sensitization or protection of diseased and normal cells, respectively.
Inhibition of APE1 activity was screened by utilizing double-stranded short substrate containing tetrahydrofuran (THF) abasic site labeled with rhodamine-type fluorophore (TAMRA) at the 5'-end and with non-fluorescent Black Hole Quencher-2 (BHQ-2) at the opposing 3'-end. An increase in the fluorescence intensity due to incision of the abasic site by APE1 was used to measure the enzyme activity.
NIH Chemical Genomics Center [NCGC]
NIH Molecular Libraries Probe Centers Network [MLPCN]
Assay Provider: David M. Wilson, III, National Institute on Aging, NIH
Three uL of enzyme solution (0.75 nM APE1 final concentration) was dispensed to 1536-well Greiner black solid bottom plates. […] The plates were incubated for 15 min at room temperature, and then 1 uL of substrate solution (50 nM final concentration of TAMRA/BHQ-2) was added to start the reaction. The plates were immediately transferred into ViewLux High-throughput CCD imager (Perkin-Elmer) in order to measure the reaction progress in kinetic mode (three reads every 60 seconds) using 525 nm excitation and 598 nm emission fluorescence protocol. The fluorescence intensity difference between the third and the first time points was used to compute reaction progress. Results were normalized to buffer only columns and NSC13755 positive controls and negative control DMSO treated wells.
Further: nearly all actives have a fitted effect of over 55% in size.
Potency means the concentration at half of the fitted maximal effect.

| Compound | Potency |
| --- | --- |
| O=C(COC(=O)CNC(=O)c1ccccc1)Nc1ccc2c(c1)OCO2 | inconclusive: 8.91 µM [inhibitor, single point] |
| CN(C)CC1CCn2c(c(C3=C(c4cn(C)c5ccccc45)C(=O)NC3=O)c3ccccc32)C1 (stereo not drawn) | inactive |
| Cc1noc(C)c1S(=O)(=O)N1CCCC(C(=O)Nc2ccc(Cl)cn2)C1 (stereo not drawn) | inconclusive: 35.5 µM [inhibitor, single point] |
| CC(C)CNC(=O)c1ccccc1NC(=O)c1ccc(CSc2ccccc2)cc1 | inactive |
| CN(C)CCNc1ccc(Cl)cc1[N+](=O)[O-] | inactive |
| Cc1cc(Cl)c2cc3ccccc3cc2n1 | inconclusive: 4.47 µM [inhibitor, single point] |
| COc1ccc(CCNC(=O)CSc2nc(O)c(CC(C)C)c(=O)[nH]2)cc1OC | inconclusive: 20 µM [inhibitor, partial curve] |
| O=C(CCCOc1ccc(Cl)cc1Cl)Nc1ccncc1 | active: 28.2 µM |
| N#CC1=C(SCC(=O)c2cc3ccccc3oc2=O)NC(=O)C(C#N)C12CCCC2 (stereo not drawn) | inconclusive: 2.82 µM [inhibitor, partial curve] |
| O=C(Nc1ccc(Br)cc1)c1cccc(S(=O)(=O)Nc2ccc(Br)cc2)c1 | inconclusive: 11.2 µM [inhibitor, partial curve] |
| CC1CCCN(c2ccc(C(=O)NCCc3ccccc3)cn2)C1 (stereo not drawn) | inconclusive: 44.7 µM [inhibitor, single point] |
| CCOC(=O)c1c(C)oc2cc(Br)c(OCC(N)=O)cc12 | inconclusive: 8.91 µM [inhibitor, single point] |
| C=C(C)C(=O)N1CC2(CC(c3cccc(NC(=O)CC(c4ccccc4)c4ccccc4)c3)=NO2)C[C@H]1C(N)=O (stereo partly drawn) | inconclusive: 44.7 µM [inhibitor, single point] |
| C#CCCCO/N=C1/C[C@@H](O)[C@@H](O)[C@@H]2[C@H]3C(=O)N(c4ccc(F)cc4F)C(=O)[C@@H]3CC[C@H]12 | inconclusive: 7.94 µM [inhibitor, single point] |
| CCSc1nnc(-c2ccc(S(=O)(=O)N3CCCC3)cc2)n1C | inconclusive: 8.91 µM [inhibitor, single point] |
| O=S(=O)(c1ccccc1)c1nc(-c2cccs2)oc1NCC1CCCO1 (stereo not drawn) | inconclusive: 0.0016 µM [inhibitor, full curve, poor fit] |
| CC(OC(=O)c1ccc(NC(=O)CC#N)cc1)C(=O)NC(c1ccccc1)c1ccccc1 (stereo not drawn) | inactive |
| Brc1ccc(CSc2nnc(-c3ccccn3)n2Cc2ccco2)cc1 | inconclusive: 44.7 µM [inhibitor, single point] |
| CCCCOC(=O)CSC1=C(C#N)C(c2ccc3c(c2)OCO3)CC(=O)N1 (stereo not drawn) | inconclusive: 39.8 µM [inhibitor, single point] |
| Cc1ccccc1OCC(=O)NNC(=O)C1CCCCC1C(=O)O (stereo not drawn) | inconclusive: 22.4 µM [inhibitor, single point] |
| Cc1cc(N=CC2=C(O)CCCC2=O)no1 | inconclusive: 17.8 µM [inhibitor, partial curve, poor fit] |

| Compound | Potency |
| --- | --- |
| C#CCN1C(=O)C(O)(CC(=O)/C=C/c2ccco2)c2ccccc21 (stereo not drawn) | inconclusive: 50.1 µM [inhibitor, single point] |
| C1=CN2CCC1C(c1ccccc1)C2 (stereo not drawn) | inconclusive: 3.55 µM [inhibitor, single point] |
| CCNc1ncc2nc(-c3ccc(F)cc3)c(=O)n(CCOC)c2n1 | inactive |
| Cc1cc(C)n2nc(SCc3cc(=O)oc4cc(C)c(C)cc34)nc2n1 | inactive |
| CCC(=O)NCC(=O)OCC(=O)c1ccccc1 | inactive |
| O=C(O)c1ccc(-n2ncc3c2/C(=C/c2cccc([N+](=O)[O-])c2)CC3)cc1 | inconclusive: 31.6 µM [inhibitor, single point] |
| CCOP(=O)(O)c1cccc(OCCOCCOc2cccc(P(=O)(O)OCC)c2)c1 | inconclusive: 1.58 µM [inhibitor, full curve, poor fit] |
| CC(C)(C)C(=O)OCc1nc(-c2ccc(O)c(O)c2)cs1 | inconclusive: 1.78 µM [inhibitor, full curve] |
| O=c1cc(-c2ccncc2)oc2c1ccc1ccccc12 | inconclusive: 11.9 µM [inhibitor, partial curve] |
| C=CCCCCCCCCC(=O)Nc1c[nH]c(=O)[nH]c1=O | inconclusive: 0.0251 µM [inhibitor, full curve] |
| Cc1c(C(=O)O)c(O)cc2c1C(=O)c1c(O)c([C@@H]3O[C@H](CO)[C@@H](O)[C@H](O)[C@H]3O)c(O)c(O)c1C2=O | active: 14.1 µM |
| COc1ccc(N(C(C)C(=O)N/N=C/c2cccnc2)S(C)(=O)=O)cc1 (stereo not drawn) | inconclusive: 12.6 µM [inhibitor, partial curve] |
| CCOC(=O)c1ccc2c(c1)nc(SCC(=O)c1cc3ccccc3o1)n2CC | inactive |
| CC1(C)OC(C(O)(c2cc(C(F)(F)F)cc(C(F)(F)F)c2)c2cc(C(F)(F)F)cc(C(F)(F)F)c2)C(C(O)(c2cc(C(F)(F)F)cc(C(F)(F)F)c2)c2cc(C(F)(F)F)cc(C(F)(F)F)c2)O1 (stereo not drawn) | inconclusive: 3.55 µM [inhibitor, single point] |
| COC(=O)[C@@H]1CC[C@H](C)[C@@H](c2ccc(C)cc2)N1C(=O)c1ccc(/C=N\OC[C@@H](O)COCc2ccco2)cc1 | inconclusive: 3.98 µM [inhibitor, single point] |
| C=CCc1cccc(/C=N/NC(=O)C(C)Nc2cccc(C)c2)c1O (stereo not drawn) | inactive |
| OC1CCCN(Cc2ccc3ccc4cccc5ccc2c3c45)C1 (stereo not drawn) | inconclusive: 31.6 µM [inhibitor, single point] |
| COc1cc(C2NC(=O)NC(C)=C2C(=O)NCc2ccccc2)c(Cl)cc1O (stereo not drawn) | inconclusive: 35.5 µM [inhibitor, single point] |
| COC(=O)[C@@]1(Cc2ccc(OC)cc2)[C@H]2c3cc(C(=O)N(C)C)n(Cc4c(CO)[nH]cc(C)c4=O)c3C[C@H]2CN1C(=O)c1ccccc1 | inconclusive: 0.891 µM [inhibitor, full curve, poor fit] |
| COc1ccc(N=Cc2sc(O)c3ccccc23)cc1 | inconclusive: 0.562 µM [inhibitor, full curve, poor fit] |
| COC(=O)CC1[C@@]2(C)C[C@@]34OC5(C)OC6(CC[C@@]7(C)C(c8ccoc8)OC(=O)C(C(C)=O)C7[C@]6(O5)C(O)[C@@]3(O)C2O)[C@]14C (stereo partly drawn) | inconclusive: 0.0708 µM [inhibitor, full curve, poor fit] |

| Compound | Potency |
| --- | --- |
| CCOC(=O)C1=C(C)NC(=O)CC1c1cc2c(cc1[N+](=O)[O-])OCO2 (stereo not drawn) | inconclusive: 28.2 µM [inhibitor, partial curve] |
| CCOC(=O)[C@H]1[C@H]2COc3ccc(Br)cc3[C@@H]2N2C(=O)CN(CC3CCCO3)C(=O)[C@@]12C (stereo partly drawn) | inconclusive: 33.6 µM [inhibitor, single point] |
| N[C@H](C(=O)O)c1ccc(C(=O)O)cc1 | inconclusive: 35.5 µM [inhibitor, partial curve] |
| CN(c1ccc(OCC(=O)OCC(=O)Nc2c(F)c(F)c(F)c(F)c2F)cc1)S(=O)(=O)c1ccc(F)cc1 | inconclusive: 35.5 µM [inhibitor, single point] |
| CCOc1ccc(S(=O)(=O)NCCOC)cc1C | inconclusive: 10 µM [inhibitor, full curve, poor fit] |
| CCCCCCCCCCCCCCCCCCc1ccc(C(=O)/C=C\C(=O)O)cc1 | inconclusive: 15.8 µM [inhibitor, full curve, poor fit] |
| CCC(=O)Nc1nc2nc(-c3ccccc3)cc(-c3ccccc3)n2n1 | inconclusive: 44.7 µM [inhibitor, single point] |
| O=C(Cc1ccc(S(=O)(=O)N2CCOCC2)s1)Nc1ccc2c(c1)CCC2 | inconclusive: 44.7 µM [inhibitor, single point] |
| COc1ccc(NS(=O)(=O)c2ccc3oc(SC(C)C(N)=O)nc3c2)cc1 (stereo not drawn) | inactive |
| COc1cc(NC(=O)COc2ccccc2Cl)ccc1NC(=O)c1cccs1 | inactive |
| O=C(O)CCCN1C(=O)/C(=C\c2ccco2)SC1=S | active: 20 µM |
| O=C(Cc1coc2cc3c(cc12)CCC3)OCc1cc(=O)n2c(n1)sc1ccccc12 | inconclusive: 35.5 µM [inhibitor, single point] |
| Cc1cc(C(=O)CSc2ccc3c(c2)OCCO3)c(C)n1C1CC1 | inconclusive: 44.7 µM [inhibitor, single point] |
| CCNC(=O)c1sc2cc(C)ccc2c1Cl | inconclusive: 0.0126 µM [inhibitor, full curve, poor fit] |
| Cc1ccc(C=C2C(=O)c3ccccc3C2=O)o1 | inconclusive: 31.6 µM [inhibitor, partial curve] |
| CCNC(=O)CSc1ncnc2sccc12 | inactive |
| Cc1c(C(C)C)c(=O)n(-c2ccc(S(=O)(=O)NCc3ccccc3)cc2)n1C | inconclusive: 5.01 µM [inhibitor, partial curve] |
| O=C(NC(C(=O)N/N=C/c1ccncc1)c1n[nH]c(=O)c2ccccc12)c1ccccc1 (stereo not drawn) | inconclusive: 44.7 µM [inhibitor, single point] |
| C=C(C)COc1ccc(-c2[nH]ncc2Oc2cccc(OC)c2)c(O)c1 | inconclusive: 44.7 µM [inhibitor, single point] |
| Cc1csc(NC(=O)c2cccn2C)n1 | inactive |
| CC(C)(C)c1ccc(C2CC2C(=O)N/N=C\c2ccc[nH]2)cc1 (stereo not drawn) | inconclusive: 25.1 µM [inhibitor, single point] |

Reprinted at random: 4 entries already listed, in no set order.

| Compound | Potency |
| --- | --- |
| CC(C)CNC(=O)c1ccccc1NC(=O)c1ccc(CSc2ccccc2)cc1 | inactive |
| Cc1cc(N=CC2=C(O)CCCC2=O)no1 | inconclusive: 17.8 µM [inhibitor, partial curve, poor fit] |
| O=C(CCCOc1ccc(Cl)cc1Cl)Nc1ccncc1 | active: 28.2 µM |
| COC(=O)CC1[C@@]2(C)C[C@@]34OC5(C)OC6(CC[C@@]7(C)C(c8ccoc8)OC(=O)C(C(C)=O)C7[C@]6(O5)C(O)[C@@]3(O)C2O)[C@]14C (stereo partly drawn) | inconclusive: 0.0708 µM [inhibitor, full curve, poor fit] |
